{
  "source": "patent US20220322709A1",
  "about": "“METHODS AND COMPOSITIONS FOR IMPROVED TASTE QUALITY” (ALMENDRA PTE. LTD., priority 2021, published 2022)",
  "assay_type_in_all_cases": "in vivo, human",
  "key": {"[1]": {"assay": "Bitterness of L-Phenylalanine in pH 3.2 citric acid buffer with and without taste modulator (tasting)", "conditions": "estimated"}, "[2]": {"assay": "Sweetness Linger standards of the sensory testing methodology", "conditions": "10% Sucrose and 500 PPM REBA, in water, perceived sweetness intensity @ 120 sec"}, "[3]": {"assay": "Bitterness of L-Tryptophan in pH 3.2 citric acid buffer with and without taste modulator (tasting)"}},
  "note": "A unit is not stated for every read-out.",
  "data": [
    {"smiles": "N[C@@H](Cc1ccccc1)C(=O)O", "note": "[L-Phe, L-Phenylalanine]", "values": [
      {"measurement": "bitterness intensity", "setting": "[1]; 7.5 mM L-Phe solution in CAB, 0-15 intensity scale", "result": 5},
      {"measurement": "Bitter Taste Threshold in CAB", "setting": "[1]; pH 3.2 Citric Acid Buffer, serial dilutions 30 mM to 1.88 mM tasted in ascending order", "result": "ca. 3 mM"}
    ]},
    {"smiles": "OC[C@H]1O[C@@](CO)(O[C@H]2O[C@H](CO)[C@@H](O)[C@H](O)[C@H]2O)[C@@H](O)[C@@H]1O", "note": "[Sucrose]", "values": [
      {"measurement": "SL (Sweetness Linger)", "setting": "[2]", "result": 0}
    ]},
    {"smiles": "C=C1C[C@@]23CC[C@H]4[C@@](C)(CCC[C@@]4(C)C(=O)O[C@@H]4O[C@H](CO)[C@@H](O)[C@H](O)[C@H]4O)[C@@H]2CC[C@]1(O[C@@H]1O[C@H](CO)[C@@H](O)[C@H](O[C@@H]2O[C@H](CO)[C@@H](O)[C@H](O)[C@H]2O)[C@H]1O[C@@H]1O[C@H](CO)[C@@H](O)[C@H](O)[C@H]1O)C3", "note": "[REBA]", "values": [
      {"measurement": "SL (Sweetness Linger)", "setting": "[2]", "result": 5}
    ]},
    {"smiles": "N[C@@H](Cc1c[nH]c2ccccc12)C(=O)O", "note": "[L-Trp, L-Tryptophan]", "values": [
      {"measurement": "bitterness intensity", "setting": "[3]; 7.5 mM L-Trp solution in CAB, 0-15 intensity scale, estimated", "result": 5},
      {"measurement": "onset and linger of bitterness", "setting": "[3]; L-Trp in CAB", "result": "noticeably slow in onset and quite lingering"},
      {"measurement": "Bitter Taste Threshold in CAB", "setting": "[3]; pH 3.2 Citric Acid Buffer, serial dilutions 30 mM to 1.88 mM tasted in ascending order, estimated", "result": "ca. 3 mM"}
    ]}
  ]
}
